Laboratory results reported in patent publication US20130196949A1, “Hydroxyalkyl starch in combination with cytostatica for the treatment of cancers by reduction of tumor growth rates” (Fresenius Kabi Deutschland GmbH, priority 2012, published 2013).
At least one structure is not confirmed: it was looked up by name or label, or the drawing left a doubt.

Tested on: RXF 1220 (renal cancer, hypernephroma) xenograft
Conditions: combination compared with reference drug alone

CCN(CC)CCNC(=O)c1c(C)[nH]c(/C=C2\C(=O)Nc3ccc(F)cc32)c1C [Sunitinib]
inhibitory effect on tumor growth (in words): inhibited the tumor growth
